From PubChem BioAssay AID493014 (National Center for Advancing Translational Sciences (NCATS), 2011)
This is one part of the list. These are further read-outs of the screen, such as a control signal, another cell line or another target. No call is given for them. Compounds called inactive in the main read-out are mostly missing here. The note in brackets gives the kind of curve behind each potency; many fits are weak.

Assay: qHTS Assay to Find Inhibitors of Chronic Active B-Cell Receptor Signaling
Settings: ABC-DLBCL IkBa-CBG/CBR reporter, luminescence ratio (green luciferase fused to IkBa over red control in TMD8 lymphoma cells), 4 h
How it was run: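 TMD8 ABC-DLBCL cells carrying doxycycline-inducible green luciferase fused to IkappaBalpha plus unfused red luciferase were exposed to compounds (up to 46 uM) for 4 hrs at 37C. Activity came from the overlap-corrected green/red luminescence ratio.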

[1] = measured here: CBR red luminescence, cell number

SMILES | AC50 [1] | AC50 (measured here: IkBa-CBG green luminescence)
Cc1ccc(S(=O)(=O)NC2OC(=O)C(Cl)=C2Cl)cc1 (stereo unspecified) | 6.51 µM [falling, single point] | –
O=C1C(N2CCOCC2)=C(n2nnc3ccccc32)C(=O)c2ccccc21 | 3.26 µM [falling, full curve] | –
O=C(CSc1ccc(Cl)cc1)Nc1ccc(N2CCN(C(=O)c3ccco3)CC2)cc1 | 0.82 µM [falling, full curve, poor fit] | –
CC(C)NC(=O)c1ccc2c(c1)N(CC(=O)N1CCOCC1)C(=O)C(C)(C)O2 | 10 µM [rising, partial curve, poor fit] | –
O=C1c2ccccc2-c2c1cccc2C(=O)N1CCOCC1 | 11.6 µM [rising, partial curve, poor fit] | –
Cc1ccc(C(=O)CCC(=O)Nc2ccccc2C)c(C)c1 | 10 µM [falling, partial curve, poor fit] | –
O=C(Nc1ccccc1)c1ccc(NCCN2C(=O)CCC2=O)c([N+](=O)[O-])c1 | 0.794 µM [rising, full curve, poor fit] | –
Cc1ccc(-n2c(Cc3cccs3)nnc2SCC(=O)OC(C)C)cc1 | 35.5 µM [falling, single point] | –
OC(CSc1ccccc1Cl)CN1CCN(c2ccccc2F)CC1 (stereo unspecified) | 10.3 µM [rising, partial curve] | –
Cc1cc(C(C)(C)C)n2nc(C)c(-c3ccccc3)c2n1 | 35.5 µM [rising, single point] | –
COc1ccc(C2NC(=O)NC(C)=C2C(C)=O)cc1 (stereo unspecified) | 29.1 µM [rising, single point] | –
COc1ccc(-c2ccc3oc(-c4ccsc4)cc(=O)c3c2)cc1F | 2.06 µM [falling, partial curve] | –
C=CCc1c(C)nc(SCC(=C)C)[nH]c1=O | 14.6 µM [rising, partial curve] | –
Clc1ccc(-c2csc(N3CCc4ccccc4C3)n2)cc1 | 3.98 µM [rising, partial curve, poor fit] | –
COc1cc(OC)cc(C(=O)NC(=S)Nc2ccc(Cl)c(C(=O)O)c2)c1 | 22.4 µM [falling, single point] | –
COc1ccccc1C(=O)NC(CCSC)C(=O)NNC(=O)c1ccccc1O (stereo unspecified) | 16.4 µM [falling, single point] | –
CCc1nn2c(NCCOC)cc(C)nc2c1-c1ccc(F)cc1 | 35.5 µM [falling, single point] | –
CC(O)CNCCNCc1c(OCc2ccccc2)ccc2ccccc12 (stereo unspecified) | 11.2 µM [falling, partial curve] | –
O=c1c2ccccc2nc2n1C1(CCCCC1)Cc1ccccc1-2 | 29.1 µM [rising, single point] | –
CCCCSc1nc2sc3c(c2c(=O)[nH]1)CC(C)(CC)OC3 (stereo unspecified) | 31.6 µM [rising, single point] | –
COc1cccc(C(=O)NNC(=O)CCc2ccccc2)c1 | 11.2 µM [falling, partial curve, poor fit] | –
O=C(N/N=C/c1ccc(F)cc1)c1cccc(NC(=O)c2ccccc2Cl)c1 | 35.5 µM [falling, single point] | –

SMILES | AC50 [1] | AC50 (measured here: IkBa-CBG green luminescence)
CCc1oc(C(=O)OC)cc1CSC(=N)N | 35.5 µM [falling, single point] | –
Cc1c(Br)cc(C(=O)NCCCN2CCOCC2)c(C)c1C | 2.06 µM [falling, partial curve, poor fit] | –
O=C(CCc1ccccc1)c1ccc2c(c1)OCCCO2 | 0.103 µM [rising, full curve, poor fit] | –
CCN1CCN(c2c(/C=C3\SC(=S)N(Cc4ccco4)C3=O)c(C)c(C#N)c(=O)n2C)CC1 | 15.8 µM [falling, single point] | –
O=c1[nH]c(C2CCN(S(=O)(=O)c3ccccc3)CC2)nc2c1nnn2Cc1c(F)cccc1Cl | 12.6 µM [falling, partial curve] | –
CN(Cc1ccccc1)C(=O)COc1ccc(C(C)(C)C)cc1 | 10 µM [falling, single point] | –
O=C1C(Cl)=C(Nc2ccc(F)cc2)C(=O)N1CCc1ccccc1 | 25.9 µM [falling, single point] | –
Cc1ccccc1N(CC(=O)N1CCOCC1)S(C)(=O)=O | 0.631 µM [rising, full curve, poor fit] | –
O=C(NN=C1CCCCCC1)c1ccc2c(c1)OCO2 | 7.08 µM [falling, partial curve] | –
Cc1ccccc1-n1nnnc1SCC(C)C | 0.447 µM [falling, full curve, poor fit] | –
Cc1ccc(C(=O)Oc2oc(-c3ccccc3)nc2C=Nc2ccc(N(C)C)cc2)cc1 | 5.8 µM [falling, full curve] | –
CN=c1scc(-c2ccc(F)cc2)n1/N=C/c1ccc(O)c(O)c1 | 17.8 µM [falling, partial curve] | –
CO/N=C/NC(=O)Cc1cn(-c2ncc(C(F)(F)F)cc2Cl)c2ccccc12 | 16.4 µM [falling, single point] | –
Cc1cccc(N(C(=O)CS(=O)CC(=O)Nc2ccc3c(c2)OCO3)C(C)C(=O)NC2CCCC2)c1C (stereo unspecified) | 3.98 µM [rising, partial curve, poor fit] | –
C=CC[C@H](CC(=O)N(CCO)Cc1ccccc1)C(=O)N[C@H](C)COC(=O)[C@@H](CC=C)Cc1ccc(F)cc1 | 13 µM [falling, single point] | –
CC(C)CCNC(=O)CN(Cc1ccc2c(c1)OCO2)C(=O)CCC(=O)Nc1ccccn1 | 12.6 µM [rising, single point] | –
O=C(Nc1cccc(S(=O)(=O)N2CCOCC2)c1)c1ccc2c(=O)n3c(nc2c1)CCCCC3 | 35.5 µM [falling, single point] | –
Cc1ccc(Cn2nnc3c(=O)n(CC(=O)NCc4ccco4)cnc32)cc1 | 29.1 µM [rising, single point] | –
COc1cccc(/C=C2\CCC(C3CCCC3)C2=O)c1OC (stereo unspecified) | 11.2 µM [falling, partial curve, poor fit] | –
CCOC(=O)C1=C(COC(=O)/C=C/c2ccc(O)c(OC)c2)NC(=O)NC1C (stereo unspecified) | 0.731 µM [rising, partial curve, poor fit] | 14.6 µM [falling, partial curve]
Cc1cc(C(=O)NC2CC(C)(C)Cc3c2cnn3-c2ccccc2C)c(C)o1 (stereo unspecified) | 17.8 µM [falling, single point] | –
COc1ccc(C(=O)c2ccccc2)c(O)c1 | 16.4 µM [rising, partial curve] | –

3 successive records already listed, quoted:
SMILES | AC50 [1] | AC50 (measured here: IkBa-CBG green luminescence)
Cc1ccc(C(=O)Oc2oc(-c3ccccc3)nc2C=Nc2ccc(N(C)C)cc2)cc1 | 5.8 µM [falling, full curve] | –
CN=c1scc(-c2ccc(F)cc2)n1/N=C/c1ccc(O)c(O)c1 | 17.8 µM [falling, partial curve] | –
CO/N=C/NC(=O)Cc1cn(-c2ncc(C(F)(F)F)cc2Cl)c2ccccc12 | 16.4 µM [falling, single point] | –

Later entries

SMILES | AC50 [1] | AC50 (measured here: IkBa-CBG green luminescence)
O=C(Nc1ccc2c(c1)Cc1ccccc1-2)c1cccnc1 | 11.2 µM [falling, single point] | –
COc1ccc(-c2nc(Cn3c(SCc4ccc(C)cc4)nc4ccncc43)c(C)o2)cc1OC | 20.6 µM [falling, single point] | –
COc1ccc(/C(C)=N/NC(=O)c2ccc(NS(=O)(=O)c3cccs3)cc2)cc1 | 10 µM [falling, partial curve] | –
Cc1ccc(CNC(=O)c2ccc(Cl)c(S(N)(=O)=O)c2)n1C | 35.5 µM [rising, single point] | –
O=C(CN1C(=O)NC2(CCCCC2)C1=O)Nc1ccccc1N1CCCC1 | 18.4 µM [rising, partial curve, poor fit] | –
CN(C)c1nc(-c2ccc([N+](=O)[O-])cc2)cs1 | 14.6 µM [rising, partial curve, poor fit] | –
CSc1sc(C(=O)NCC2CC2)cc1S(=O)(=O)C(C)C | 10 µM [rising, partial curve, poor fit] | –
COc1ccc(Cl)cc1NC(=O)CSc1sc2c(O)cc(=O)[nH]c2c1C#N | 6.31 µM [falling, single point] | –
CCOC(=O)CSc1nc2sc3c(c2c(=O)[nH]1)CC(C)(C)OC3 | 35.5 µM [rising, single point] | –
COc1ccc(NCc2nnc(-c3ccccc3)o2)cc1 | 2 µM [rising, full curve] | –
Cc1cccc(NC(=S)NN(Cc2ccccc2)c2ccccc2)c1C | 2.59 µM [rising, partial curve, poor fit] | –
CN(CC(=O)Nc1cccc(F)c1)C(=O)CSc1ccccc1F | 22.4 µM [rising, partial curve, poor fit] | –
N#CC1=C(N)Oc2cc(O)ccc2C1C1CCCCC1 (stereo unspecified) | 8.91 µM [falling, single point] | –
CCN(CC)CCn1c(=S)[nH]c2cc(C(=O)NCc3ccccc3Cl)ccc2c1=O | 14.1 µM [falling, partial curve, poor fit] | –
CC1(C)CCC[C@]2(C)[C@H]3CC(=O)O[C@]3(C)CC[C@@H]12 | 2.82 µM [rising, partial curve, poor fit] | –
CC(=O)c1sc(Nc2nc3cc4c(cc3s2)OCO4)nc1C | 0.355 µM [rising, full curve, poor fit] | –
CCCNC(=O)c1cc2cc([N+](=O)[O-])ccc2s1 | 3.16 µM [rising, full curve, poor fit] | –
CCOC(=O)c1ccc(OS(=O)(=O)c2ccccc2)c(OC)c1 | 16.4 µM [rising, partial curve] | –
CCn1c(SCC(=O)Nc2ccccc2C)nnc1-c1ccccc1O | 0.0116 µM [falling, full curve, poor fit] | –
COc1cccc(CNC(=O)CN2c3cccc4cccc(c34)S2(=O)=O)c1 | 1.64 µM [falling, full curve] | –
O=C(CCc1nc2ccccc2s1)Nc1ccccc1 | 29.1 µM [falling, single point] | –
